# Test results from PubChem BioAssay AID186 (DTP/NCI, 2004).
# The mice bore no tumour; each value counts animals alive of those treated. Survivors were counted at the toxicity check, usually on the fifth day, unless a day is given; later deaths do not show. Schedule codes are those of the source, taken here to give the interval after Q, in days (D) or hours (H), and the number of doses after X.
# Test system: B6D2F1 mice, nontumored toxicity test, survival
# Assay: NCI In Vivo Anticancer Drug Screen. Data for tumor model Nontumored Animals (Toxicity Test) in B6D2F1 (BDF1) mice
compound,measurement,setting,value
O=C1C(=O)c2ccccc2C(O)=C1CC=C(Cl)Cl,survivor count,"dose: 10.0 mg/kg/injection, schedule: Q01DX009 (ip), vehicle: alkali diluted with water",10 of 10
same,survivor count,"dose: 20.0 mg/kg/injection, schedule: Q01DX009 (ip), vehicle: alkali diluted with water",10 of 10
same,survivor count,"dose: 30.0 mg/kg/injection, schedule: Q01DX009 (ip), vehicle: alkali diluted with water",10 of 10
same,survivor count,"dose: 40.0 mg/kg/injection, schedule: Q01DX009 (ip), vehicle: alkali diluted with water",10 of 10
same,survivor count,"dose: 50.0 mg/kg/injection, schedule: Q01DX009 (ip), vehicle: alkali diluted with water",10 of 10
OCC1OC(n2cnc3c2NC=NC[C@H]3O)CC1O (some centres not stated),survivor count,"dose: 0.25 mg/kg/injection, schedule: Q01DX009 (ip), vehicle: saline",10 of 10
same,survivor count,"dose: 0.5 mg/kg/injection, schedule: Q01DX009 (ip), vehicle: saline",10 of 10
same,survivor count,"dose: 1.0 mg/kg/injection, schedule: Q01DX009 (ip), vehicle: saline",10 of 10
same,survivor count,"dose: 2.0 mg/kg/injection, schedule: Q01DX009 (ip), vehicle: saline",10 of 10
Nc1nc(Cl)nc2c1ncn2C1CC(O)C(CO)O1 (configuration not stated),survivor count,"dose: 16.0 mg/kg/injection, schedule: Q01DX012 (ip), vehicle: other",6 of 6
same,survivor count,"dose: 32.0 mg/kg/injection, schedule: Q01DX012 (ip), vehicle: other",6 of 6
same,survivor count,"dose: 64.0 mg/kg/injection, schedule: Q01DX012 (ip), vehicle: other",2 of 6
same,survivor count,"dose: 128.0 mg/kg/injection, schedule: Q01DX012 (ip), vehicle: other",0 of 6
O=c1[nH]c(=O)n(C2CC(O)C(CO)O2)cc1F (configuration not stated),survivor count,"dose: 3.12 mg/kg/injection, schedule: Q03HX024 (ip), vehicle: saline",6 of 6
same,survivor count,"dose: 6.25 mg/kg/injection, schedule: Q03HX008 (ip), vehicle: saline",6 of 6
same,survivor count,"dose: 6.25 mg/kg/injection, schedule: Q03HX016 (ip), vehicle: saline",6 of 6
same,survivor count,"dose: 6.25 mg/kg/injection, schedule: Q03HX024 (ip), vehicle: saline",6 of 6
same,survivor count,"dose: 12.5 mg/kg/injection, schedule: Q03HX008 (ip), vehicle: saline",5 of 6
same,survivor count,"dose: 12.5 mg/kg/injection, schedule: Q03HX016 (ip), vehicle: saline",6 of 6
same,survivor count,"dose: 12.5 mg/kg/injection, schedule: Q03HX024 (ip), vehicle: saline",6 of 6
same,survivor count,"dose: 25.0 mg/kg/injection, schedule: Q01DX009 (ip), vehicle: saline",6 of 6
same,survivor count,"dose: 25.0 mg/kg/injection, schedule: Q03HX008 (ip), vehicle: saline",6 of 6
same,survivor count,"dose: 25.0 mg/kg/injection, schedule: Q03HX016 (ip), vehicle: saline",6 of 6
same,survivor count,"dose: 25.0 mg/kg/injection, schedule: Q03HX024 (ip), vehicle: saline",6 of 6
same,survivor count,"dose: 50.0 mg/kg/injection, schedule: Q01DX009 (ip), vehicle: saline",5 of 6
same,survivor count,"dose: 50.0 mg/kg/injection, schedule: Q03HX008 (ip), vehicle: saline",6 of 6
same,survivor count,"dose: 50.0 mg/kg/injection, schedule: Q03HX016 (ip), vehicle: saline",6 of 6
same,survivor count,"dose: 50.0 mg/kg/injection, schedule: Q03HX024 (ip), vehicle: saline",6 of 6
same,survivor count,"dose: 100.0 mg/kg/injection, schedule: Q01DX009 (ip), vehicle: saline",6 of 6
same,survivor count,"dose: 100.0 mg/kg/injection, schedule: Q03HX008 (ip), vehicle: saline",6 of 6
same,survivor count,"dose: 100.0 mg/kg/injection, schedule: Q03HX016 (ip), vehicle: saline",6 of 6
same,survivor count,"dose: 100.0 mg/kg/injection, schedule: Q03HX024 (ip), vehicle: saline",6 of 6
same,survivor count,"dose: 100.0 mg/kg/injection, schedule: Q04DX003 (ip), vehicle: saline",6 of 6
same,survivor count,"dose: 160.0 mg/kg/injection, schedule: Q01DX001 (ip), vehicle: saline",6 of 6
same,survivor count,"dose: 200.0 mg/kg/injection, schedule: Q01DX001 (ip), vehicle: saline",6 of 6
same,survivor count,"dose: 200.0 mg/kg/injection, schedule: Q01DX009 (ip), vehicle: saline",6 of 6
same,survivor count,"dose: 200.0 mg/kg/injection, schedule: Q03HX008 (ip), vehicle: saline",6 of 6
same,survivor count,"dose: 200.0 mg/kg/injection, schedule: Q03HX016 (ip), vehicle: saline",6 of 6
same,survivor count,"dose: 200.0 mg/kg/injection, schedule: Q04DX003 (ip), vehicle: saline",6 of 6
same,survivor count,"dose: 200.0 mg/kg/injection, schedule: Q08DX002 (ip), vehicle: saline",6 of 6
same,survivor count,"dose: 400.0 mg/kg/injection, schedule: Q01DX001 (ip), vehicle: saline",6 of 6
same,survivor count,"dose: 400.0 mg/kg/injection, schedule: Q01DX009 (ip), vehicle: saline",6 of 6
same,survivor count,"dose: 400.0 mg/kg/injection, schedule: Q04DX003 (ip), vehicle: saline",6 of 6
same,survivor count,"dose: 400.0 mg/kg/injection, schedule: Q08DX002 (ip), vehicle: saline",6 of 6
same,survivor count,"dose: 800.0 mg/kg/injection, schedule: Q01DX001 (ip), vehicle: saline",6 of 6
same,survivor count,"dose: 800.0 mg/kg/injection, schedule: Q04DX003 (ip), vehicle: saline",6 of 6
same,survivor count,"dose: 800.0 mg/kg/injection, schedule: Q08DX002 (ip), vehicle: saline",6 of 6
same,survivor count,"dose: 1600.0 mg/kg/injection, schedule: Q04DX003 (ip), vehicle: saline",6 of 6
same,survivor count,"dose: 1600.0 mg/kg/injection, schedule: Q08DX002 (ip), vehicle: saline",6 of 6
COc1cc2cc3c4cc(OC)c(OC)cc4cc[n+]3c(C)c2cc1OC (tested in a mixture with another compound),survivor count,"dose: 8.0 mg/kg/injection, schedule: Q01DX009 (ip), vehicle: Klucel (hydroxypropylcellulose) (HPC)",8 of 8
same,survivor count,"dose: 8.0 mg/kg/injection, schedule: Q01DX009 (ip), vehicle: clinical formulation",8 of 8
same,survivor count,"dose: 8.0 mg/kg/injection, schedule: Q01DX009 (ip), vehicle: water",7 of 8
same,survivor count,"dose: 16.0 mg/kg/injection, schedule: Q01DX009 (ip), vehicle: Klucel (hydroxypropylcellulose) (HPC)",8 of 8
same,survivor count,"dose: 16.0 mg/kg/injection, schedule: Q01DX009 (ip), vehicle: clinical formulation",8 of 8
same,survivor count,"dose: 16.0 mg/kg/injection, schedule: Q01DX009 (ip), vehicle: water",7 of 8
same,survivor count,"dose: 32.0 mg/kg/injection, schedule: Q01DX009 (ip), vehicle: Klucel (hydroxypropylcellulose) (HPC)",8 of 8
same,survivor count,"dose: 32.0 mg/kg/injection, schedule: Q01DX009 (ip), vehicle: clinical formulation",7 of 8
same,survivor count,"dose: 32.0 mg/kg/injection, schedule: Q01DX009 (ip), vehicle: water",7 of 8
same,survivor count,"dose: 64.0 mg/kg/injection, schedule: Q01DX009 (ip), vehicle: Klucel (hydroxypropylcellulose) (HPC)",6 of 8
same,survivor count,"dose: 64.0 mg/kg/injection, schedule: Q01DX009 (ip), vehicle: clinical formulation",7 of 8
same,survivor count,"dose: 64.0 mg/kg/injection, schedule: Q01DX009 (ip), vehicle: water",6 of 8
same,survivor count,"dose: 128.0 mg/kg/injection, schedule: Q01DX009 (ip), vehicle: Klucel (hydroxypropylcellulose) (HPC)",6 of 8
same,survivor count,"dose: 128.0 mg/kg/injection, schedule: Q01DX009 (ip), vehicle: clinical formulation",2 of 8
same,survivor count,"dose: 128.0 mg/kg/injection, schedule: Q01DX009 (ip), vehicle: water",7 of 8
same,survivor count,"dose: 256.0 mg/kg/injection, schedule: Q01DX009 (ip), vehicle: Klucel (hydroxypropylcellulose) (HPC)",0 of 8
same,survivor count,"dose: 256.0 mg/kg/injection, schedule: Q01DX009 (ip), vehicle: clinical formulation",0 of 8
same,survivor count,"dose: 256.0 mg/kg/injection, schedule: Q01DX009 (ip), vehicle: water",0 of 8
CCCC(=O)Nc1ncnc2c1ncn2C1OC2COP(=O)(O)OC2C1OC(=O)CCC (configuration not stated),survivor count,"dose: 16.0 mg/kg/injection, schedule: Q06HX024 (ip), vehicle: saline",8 of 8
same,survivor count,"dose: 32.0 mg/kg/injection, schedule: Q06HX024 (ip), vehicle: saline",8 of 8
same,survivor count,"dose: 64.0 mg/kg/injection, schedule: Q06HX024 (ip), vehicle: saline",8 of 8
same,survivor count,"dose: 128.0 mg/kg/injection, schedule: Q06HX024 (ip), vehicle: saline",8 of 8
same,survivor count,"dose: 256.0 mg/kg/injection, schedule: Q06HX024 (ip), vehicle: saline",7 of 8
Cc1nc(N)nc(N)c1-c1ccc(Cl)c(Cl)c1,survivor count,"dose: 5.0 mg/kg/injection, schedule: Q04DX003 (sc), vehicle: other",10 of 10
same,survivor count,"dose: 10.0 mg/kg/injection, schedule: Q04DX002 (sc), vehicle: other",10 of 10
same,survivor count,"dose: 10.0 mg/kg/injection, schedule: Q04DX003 (sc), vehicle: other",10 of 10
same,survivor count,"dose: 15.0 mg/kg/injection, schedule: Q04DX002 (sc), vehicle: other",10 of 10
same,survivor count,"dose: 15.0 mg/kg/injection, schedule: Q04DX003 (ip), vehicle: other",10 of 10
same,survivor count,"dose: 15.0 mg/kg/injection, schedule: Q04DX003 (sc), vehicle: other",10 of 10
same,survivor count,"dose: 20.0 mg/kg/injection, schedule: Q04DX002 (ip), vehicle: other",10 of 10
same,survivor count,"dose: 20.0 mg/kg/injection, schedule: Q04DX002 (sc), vehicle: other",9 of 9
same,survivor count,"dose: 20.0 mg/kg/injection, schedule: Q04DX003 (ip), vehicle: other",10 of 10
same,survivor count,"dose: 20.0 mg/kg/injection, schedule: Q04DX003 (sc), vehicle: other",10 of 10
same,survivor count,"dose: 25.0 mg/kg/injection, schedule: Q04DX002 (ip), vehicle: other",10 of 10
same,survivor count,"dose: 25.0 mg/kg/injection, schedule: Q04DX002 (sc), vehicle: other",10 of 10
same,survivor count,"dose: 25.0 mg/kg/injection, schedule: Q04DX003 (ip), vehicle: other",10 of 10
same,survivor count,"dose: 25.0 mg/kg/injection, schedule: Q04DX003 (sc), vehicle: other",10 of 10
same,survivor count,"dose: 30.0 mg/kg/injection, schedule: Q04DX002 (ip), vehicle: other",10 of 10
same,survivor count,"dose: 30.0 mg/kg/injection, schedule: Q04DX002 (sc), vehicle: other",10 of 10
same,survivor count,"dose: 30.0 mg/kg/injection, schedule: Q04DX003 (ip), vehicle: other",10 of 10
same,survivor count,"dose: 30.0 mg/kg/injection, schedule: Q04DX003 (sc), vehicle: other",10 of 10
same,survivor count,"dose: 35.0 mg/kg/injection, schedule: Q04DX002 (ip), vehicle: other",10 of 10
same,survivor count,"dose: 35.0 mg/kg/injection, schedule: Q04DX002 (sc), vehicle: other",10 of 10
